Results published in the supplement of paper PMC9233669.
Variants at the floor of the assay are shown more often than the library holds them.

Columns and labels:
biotinyl-Ile-oxazolone = assay: self-aminoacylation, catalytic enhancement (BIO) (fold over background); higher = more active; k-Seq, kA / k0A0; sequences stand for … in GGGAAUGGAUCCACAUCUACGAAUUC…UUCACUGCAGACUUGACGAAGCUG
Outline: (§1)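 Working in 50 μL HEPES/NaCl/KCl/MgCl2/CaCl2 buffer with 5% acetonitrile at pH 6.9–7.0, mutagenized RNA pools (0.43 μM; 21-nt variable region) were reacted with 2–1250 μM of each biotinyl-aminoacyl-oxazolone for 90 minutes at room temperature. Streptavidin capture followed, with quantification by triplicate qPCR and Illumina sequencing. Catalytic enhancement is reported as median kA over the uncatalyzed rate, the low-activity peak of a bimodal Gaussian fit to the data.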

biotinyl-Met-oxazolone = assay: self-aminoacylation, catalytic enhancement (BMO) (fold over background); higher = more active; k-Seq, kA / k0A0; sequences stand for … in GGGAAUGGAUCCACAUCUACGAAUUC…UUCACUGCAGACUUGACGAAGCUG
Outline: as §1

biotinyl-Leu-oxazolone = assay: self-aminoacylation, catalytic enhancement (BLO) (fold over background); higher = more active; k-Seq, kA / k0A0; sequences stand for … in GGGAAUGGAUCCACAUCUACGAAUUC…UUCACUGCAGACUUGACGAAGCUG
Outline: as §1

biotinyl-Trp-oxazolone = assay: self-aminoacylation, catalytic enhancement (BWO) (fold over background); higher = more active; k-Seq, kA / k0A0; sequences stand for … in GGGAAUGGAUCCACAUCUACGAAUUC…UUCACUGCAGACUUGACGAAGCUG
Outline: as §1

biotinyl-Phe-oxazolone = assay: self-aminoacylation, catalytic enhancement (BFO) (fold over background); higher = more active; k-Seq, kA / k0A0; sequences stand for … in GGGAAUGGAUCCACAUCUACGAAUUC…UUCACUGCAGACUUGACGAAGCUG
Outline: as §1

biotinyl-Val-oxazolone = assay: self-aminoacylation, catalytic enhancement (BVO) (fold over background); higher = more active; k-Seq, kA / k0A0; sequences stand for … in GGGAAUGGAUCCACAUCUACGAAUUC…UUCACUGCAGACUUGACGAAGCUG
Outline: as §1

Sequence	self-aminoacylation (biotinyl-Ile-oxazolone)	self-aminoacylation (biotinyl-Met-oxazolone)	self-aminoacylation (biotinyl-Leu-oxazolone)	self-aminoacylation (biotinyl-Trp-oxazolone)	self-aminoacylation (biotinyl-Phe-oxazolone)	self-aminoacylation (biotinyl-Val-oxazolone)
AAGUUAGAUAAUAGUCGCAAG [Fam3.1 aminoacylation ribozyme variant]	1.16	0.646	0.885	0.921	1.27	0.934
AAGUUAGCUAAUAGUCGCAGG [Fam3.1 aminoacylation ribozyme variant]	1.76	1.6	1.62	1.77	4.27	1.8
AAGUUAGCUAAUAGUCGCGAG [Fam3.1 aminoacylation ribozyme variant]	1.71	1.52	2.09	2.24	2.29	1.57
AAGUUAGCUAAUAGUCGUAAG [Fam3.1 aminoacylation ribozyme variant]	1.45	1.35	1.23	3.54	14	1.47
AAGUUCACUAAUAGUCGCAAG [Fam3.1 aminoacylation ribozyme variant]	1.96	1.37	1.8	2.23	2.72	1.86
AAGUUGGCUAAUAGUAGCAAG [Fam3.1 aminoacylation ribozyme variant]	1.44	1.53	1.19	1.39	1.36	1.19
AAGUUGGCUAAUAGUCGCGAG [Fam3.1 aminoacylation ribozyme variant]	1.68	1.5	1.43	3.96	1.05	1.37
AAGUUUACUAAUAAUCGCAAG [Fam3.1 aminoacylation ribozyme variant]	1.29	1.4	1	1.22	1.58	1.3
AAGUUUACUAAUAGUCGCAAC [Fam3.1 aminoacylation ribozyme variant]	1.4	1.14	1.17	1.43	1.9	1.35
AAGUUUCCUAAUAGGCGCAAG [Fam3.1 aminoacylation ribozyme variant]	0.886	1.14	1.12	0.84	0.658	0.874
AAGUUUCCUAAUAGUCGGAAG [Fam3.1 aminoacylation ribozyme variant]	1.44	1.14	1.32	1.68	1.51	0.99
AAGUUUCCUAAUAGUCUCAAG [Fam3.1 aminoacylation ribozyme variant]	1.26	1.07	1.08	1.31	2.15	1.07
AAGUUUGAUAAUAGUCCCAAG [Fam3.1 aminoacylation ribozyme variant]	0.613	0.47	0.423	0.489	0.838	0.515
AAGUUUGAUAAUAGUCGCACG [Fam3.1 aminoacylation ribozyme variant]	0.91	0.633	0.699	1.43	0.894	0.779
AAGUUUGAUAAUAGUGGCAAG [Fam3.1 aminoacylation ribozyme variant]	0.559	0.396	0.423	0.405	0.547	0.5
AAGUUUGAUAAUAGUUGCAAG [Fam3.1 aminoacylation ribozyme variant]	0.785	0.588	0.845	0.733	0.854	0.685
AAGUUUGCAAAAAGUCGCAAG [Fam3.1 aminoacylation ribozyme variant]	0.902	1.07	0.938	0.831	1.72	0.733
AAGUUUGCAAAUAGUCGCACG [Fam3.1 aminoacylation ribozyme variant]	0.964	0.694	0.787	0.66	0.992	0.93
AAGUUUGCAAAUAGUCGCAGG [Fam3.1 aminoacylation ribozyme variant]	1.51	1.43	1.53	1.38	1.86	1.31
AAGUUUGCAACUAGUCGCAAG [Fam3.1 aminoacylation ribozyme variant]	0.91	0.876	1.45	0.893	1.35	0.942
AAGUUUGCAGAUAGUCGCAAG [Fam3.1 aminoacylation ribozyme variant]	0.983	0.85	0.866	1.08	0.81	0.736
AAGUUUGCCAAUACUCGCAAG [Fam3.1 aminoacylation ribozyme variant]	0.777	0.897	0.885	0.921	0.833	0.981
AAGUUUGCCAAUAGUAGCAAG [Fam3.1 aminoacylation ribozyme variant]	0.927	1.34	0.909	0.758	1.47	1.07
AAGUUUGCGAAUAGUCUCAAG [Fam3.1 aminoacylation ribozyme variant]	0.861	0.799	0.878	0.798	0.91	0.901
AAGUUUGCUAAAAGUCGCUAG [Fam3.1 aminoacylation ribozyme variant]	0.911	0.781	0.944	0.783	1.38	0.803
AAGUUUGCUAACAGUCGCAAC [Fam3.1 aminoacylation ribozyme variant]	0.931	0.839	0.738	0.746	1.18	0.834

Sequence	self-aminoacylation (biotinyl-Ile-oxazolone)	self-aminoacylation (biotinyl-Met-oxazolone)	self-aminoacylation (biotinyl-Leu-oxazolone)	self-aminoacylation (biotinyl-Trp-oxazolone)	self-aminoacylation (biotinyl-Phe-oxazolone)	self-aminoacylation (biotinyl-Val-oxazolone)
AAGUUUGCUAACAGUGGCAAG [Fam3.1 aminoacylation ribozyme variant]	0.656	0.904	0.683	0.839	1.67	0.841
AAGUUUGCUAAGAGUCACAAG [Fam3.1 aminoacylation ribozyme variant]	1.03	0.953	0.794	0.964	1.73	0.938
AAGUUUGCUAAGGGUCGCAAG [Fam3.1 aminoacylation ribozyme variant]	0.706	0.629	0.52	0.784	0.498	0.757
AAGUUUGCUAAUAAGCGCAAG [Fam3.1 aminoacylation ribozyme variant]	0.524	0.545	0.503	0.744	0.606	0.412
AAGUUUGCUAAUAAUCGCUAG [Fam3.1 aminoacylation ribozyme variant]	0.938	0.919	1.08	0.885	1.08	0.861
AAGUUUGCUAAUACUCGGAAG [Fam3.1 aminoacylation ribozyme variant]	0.616	0.743	0.484	0.636	1.03	0.608
AAGUUUGCUAAUAGACCCAAG [Fam3.1 aminoacylation ribozyme variant]	0.672	0.928	0.502	0.477	1.03	0.736
AAGUUUGCUAAUAGCCUCAAG [Fam3.1 aminoacylation ribozyme variant]	0.648	0.666	0.419	0.926	1.22	0.646
AAGUUUGCUAAUAGCGGCAAG [Fam3.1 aminoacylation ribozyme variant]	0.668	0.508	0.575	0.924	0.964	0.646
AAGUUUGCUAAUAGGAGCAAG [Fam3.1 aminoacylation ribozyme variant]	0.722	0.677	0.714	0.632	0.799	0.878
AAGUUUGCUAAUAGGCGCCAG [Fam3.1 aminoacylation ribozyme variant]	0.767	0.995	0.75	1.08	0.389	0.964
AAGUUUGCUAAUAGUAGGAAG [Fam3.1 aminoacylation ribozyme variant]	1.03	1.03	1	1.54	1.25	1.12
AAGUUUGCUAAUAGUCACAUG [Fam3.1 aminoacylation ribozyme variant]	1.14	1.06	0.963	1.1	1.48	1.36
AAGUUUGCUAAUAGUCCCAGG [Fam3.1 aminoacylation ribozyme variant]	1.14	1.12	1.26	1.4	1.15	1.3
AAGUUUGCUAAUAGUCGAAAC [Fam3.1 aminoacylation ribozyme variant]	0.908	0.983	0.934	0.92	1.11	0.886
AAGUUUGCUAAUAGUCGCCAA [Fam3.1 aminoacylation ribozyme variant]	1.39	1.02	0.958	1.2	1.77	1.25
AAGUUUGCUAAUAGUCGGGAG [Fam3.1 aminoacylation ribozyme variant]	1.39	1.12	0.892	1.88	1.71	1.55
AAGUUUGCUAAUCAUCGCAAG [Fam3.1 aminoacylation ribozyme variant]	0.726	0.517	0.683	0.73	1.04	0.747
AAGUUUGCUAAUGGUCGUAAG [Fam3.1 aminoacylation ribozyme variant]	0.598	0.539	0.557	0.688	1.26	0.715
AAGUUUGCUAAUGGUGGCAAG [Fam3.1 aminoacylation ribozyme variant]	0.803	0.644	0.47	0.815	0.67	0.536
AAGUUUGCUAAUUAUCGCAAG [Fam3.1 aminoacylation ribozyme variant]	0.875	0.736	0.554	0.8	0.951	0.794
AAGUUUGCUACUAAUCGCAAG [Fam3.1 aminoacylation ribozyme variant]	0.878	0.793	0.805	0.764	1.01	0.831
AAGUUUGCUACUAGUCGAAAG [Fam3.1 aminoacylation ribozyme variant]	0.948	0.791	0.858	1	0.954	0.861
AAGUUUGCUACUUGUCGCAAG [Fam3.1 aminoacylation ribozyme variant]	1.05	0.928	1.06	1.21	1.01	1.12
AAGUUUGCUAGUAGACGCAAG [Fam3.1 aminoacylation ribozyme variant]	0.726	0.871	0.986	0.658	1.46	0.983
